Reference: PubChem BioAssay AID1259306 (Sanger Institute, 2017)
In all, the deposit lists 794 reagents; below is a random part of them. 11 of them (1.4%) count as active. 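Calls reflect knock-down alone; synergy scores play no part, so knock-downs synergising with a drug can be called no change.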 No viability above 1 is reported: the scale is capped. Further read-outs or replicates are left out here. Not given: the amount of reagent, the time to read-out.

Purpose: 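Find kinases whose loss reduces colorectal cancer cell viability or aids targeted drugs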 (primary screen)
System: human SNU-C5 colorectal cancer cells
Knock-down reagent: siRNA pool against human genes
Challenge: DMSO vehicle alone, or one anchor drug: BYL719 at 1 µM, cetuximab at 5 µg/ml or trametinib at 10 nM, given 24 h into the assay
Detection: 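Replicate-averaged viability against non-targeting pool control, given as fraction and robust z-score; separate synergy scores for BYL719, cetuximab and trametinib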
Reading the numbers: robust z-score, knock-down alone and viability, knock-down alone: higher = more viable cells
Active means: 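Essential if knock-down without drug gives a robust z-score under -3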
Meaning of the calls: active = essential (knock-down alone); inactive = no change alone

PTK6
- robust z-score, knock-down alone: 0.801
- viability, knock-down alone: 0.974
- Call: inactive

ALPK2
- robust z-score, knock-down alone: -0.0845
- viability, knock-down alone: 0.852
- Call: inactive

MYH10
- robust z-score, knock-down alone: -0.219
- viability, knock-down alone: 0.834
- Call: inactive

PGK1
- robust z-score, knock-down alone: -0.292
- viability, knock-down alone: 0.824
- Call: inactive

ITPK1
- robust z-score, knock-down alone: 0.989
- viability, knock-down alone: 1
- Call: inactive

GUK1
- robust z-score, knock-down alone: -0.109
- viability, knock-down alone: 0.849
- Call: inactive

CSNK1D
- robust z-score, knock-down alone: 0.516
- viability, knock-down alone: 0.935
- Call: inactive

PRKX
- robust z-score, knock-down alone: 0.989
- viability, knock-down alone: 1
- Call: inactive

STK10
- robust z-score, knock-down alone: 0.949
- viability, knock-down alone: 0.995
- Call: inactive

EPHA8
- robust z-score, knock-down alone: 0.979
- viability, knock-down alone: 0.999
- Call: inactive

MAP2K7
- robust z-score, knock-down alone: 0.248
- viability, knock-down alone: 0.898
- Call: inactive

NUP62
- robust z-score, knock-down alone: -0.843
- viability, knock-down alone: 0.748
- Call: inactive

EIF2AK2
- robust z-score, knock-down alone: 0.626
- viability, knock-down alone: 0.95
- Call: inactive

CPNE3
- robust z-score, knock-down alone: -0.142
- viability, knock-down alone: 0.844
- Call: inactive

SKAP1
- robust z-score, knock-down alone: 0.989
- viability, knock-down alone: 1
- Call: inactive

NEK9
- robust z-score, knock-down alone: 0.67
- viability, knock-down alone: 0.956
- Call: inactive

PRKCG
- robust z-score, knock-down alone: 0.326
- viability, knock-down alone: 0.909
- Call: inactive

PBK
- robust z-score, knock-down alone: 0.643
- viability, knock-down alone: 0.952
- Call: inactive

Next part, starting with the last 4 of the part before.
SKAP1
- robust z-score, knock-down alone: 0.989
- viability, knock-down alone: 1
- Call: inactive

NEK9
- robust z-score, knock-down alone: 0.67
- viability, knock-down alone: 0.956
- Call: inactive

PRKCG
- robust z-score, knock-down alone: 0.326
- viability, knock-down alone: 0.909
- Call: inactive

PBK
- robust z-score, knock-down alone: 0.643
- viability, knock-down alone: 0.952
- Call: inactive

CRKL
- robust z-score, knock-down alone: 0.872
- viability, knock-down alone: 0.984
- Call: inactive

NRBP2
- robust z-score, knock-down alone: -0.544
- viability, knock-down alone: 0.789
- Call: inactive

GATA3
- robust z-score, knock-down alone: -0.876
- viability, knock-down alone: 0.743
- Call: inactive

STK39
- robust z-score, knock-down alone: -2.65
- viability, knock-down alone: 0.498
- Call: inactive

CLK3
- robust z-score, knock-down alone: -0.409
- viability, knock-down alone: 0.807
- Call: inactive

KHK
- robust z-score, knock-down alone: -0.545
- viability, knock-down alone: 0.789
- Call: inactive

AKT3
- robust z-score, knock-down alone: -0.556
- viability, knock-down alone: 0.787
- Call: inactive

NUP107
- robust z-score, knock-down alone: -1.18
- viability, knock-down alone: 0.701
- Call: inactive

PHKA1
- robust z-score, knock-down alone: 0.468
- viability, knock-down alone: 0.928
- Call: inactive

RPS6KA4
- robust z-score, knock-down alone: 0.518
- viability, knock-down alone: 0.935
- Call: inactive

IP6K3
- robust z-score, knock-down alone: -2.1
- viability, knock-down alone: 0.574
- Call: inactive

FCSK
- robust z-score, knock-down alone: 0.656
- viability, knock-down alone: 0.954
- Call: inactive

AXL
- robust z-score, knock-down alone: 0.989
- viability, knock-down alone: 1
- Call: inactive

WHR1
- robust z-score, knock-down alone: 0.637
- viability, knock-down alone: 0.951
- Call: inactive

MARK4
- robust z-score, knock-down alone: 0.915
- viability, knock-down alone: 0.99
- Call: inactive

CSNK1G2
- robust z-score, knock-down alone: 0.989
- viability, knock-down alone: 1
- Call: inactive

PFKM
- robust z-score, knock-down alone: 0.5
- viability, knock-down alone: 0.933
- Call: inactive

DDR2
- robust z-score, knock-down alone: 0.788
- viability, knock-down alone: 0.972
- Call: inactive
